The values that follow come from paper doi:10.1101/2024.02.28.582656.

Chains of the proteins cited; added tags and fusions are not shown.
UniProt O95292: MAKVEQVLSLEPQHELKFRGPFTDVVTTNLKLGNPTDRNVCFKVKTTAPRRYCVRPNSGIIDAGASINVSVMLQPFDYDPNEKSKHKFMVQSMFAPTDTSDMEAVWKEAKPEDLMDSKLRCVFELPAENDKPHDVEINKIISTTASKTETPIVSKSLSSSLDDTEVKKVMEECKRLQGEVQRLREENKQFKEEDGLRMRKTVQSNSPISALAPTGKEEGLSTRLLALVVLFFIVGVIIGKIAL

Positions count from the first letter of the chain named. Where two headings read alike, the source gives them in different places. These are yes or no findings as the source states them, for the method shown. In cells and extracts the contact can be indirect. Some results given as binding are weak or reduced against the parent protein; the word gives no strength. For some of these results: Where a sequence is shown, tags or fusion partners need not be part of it.

Holding throughout (test): co-IP
The target of experiment [1] is T1, GFP-VPS13B-NT (1-1500aa) (human) (UniProt Q7Z7G8).
T1 sequence: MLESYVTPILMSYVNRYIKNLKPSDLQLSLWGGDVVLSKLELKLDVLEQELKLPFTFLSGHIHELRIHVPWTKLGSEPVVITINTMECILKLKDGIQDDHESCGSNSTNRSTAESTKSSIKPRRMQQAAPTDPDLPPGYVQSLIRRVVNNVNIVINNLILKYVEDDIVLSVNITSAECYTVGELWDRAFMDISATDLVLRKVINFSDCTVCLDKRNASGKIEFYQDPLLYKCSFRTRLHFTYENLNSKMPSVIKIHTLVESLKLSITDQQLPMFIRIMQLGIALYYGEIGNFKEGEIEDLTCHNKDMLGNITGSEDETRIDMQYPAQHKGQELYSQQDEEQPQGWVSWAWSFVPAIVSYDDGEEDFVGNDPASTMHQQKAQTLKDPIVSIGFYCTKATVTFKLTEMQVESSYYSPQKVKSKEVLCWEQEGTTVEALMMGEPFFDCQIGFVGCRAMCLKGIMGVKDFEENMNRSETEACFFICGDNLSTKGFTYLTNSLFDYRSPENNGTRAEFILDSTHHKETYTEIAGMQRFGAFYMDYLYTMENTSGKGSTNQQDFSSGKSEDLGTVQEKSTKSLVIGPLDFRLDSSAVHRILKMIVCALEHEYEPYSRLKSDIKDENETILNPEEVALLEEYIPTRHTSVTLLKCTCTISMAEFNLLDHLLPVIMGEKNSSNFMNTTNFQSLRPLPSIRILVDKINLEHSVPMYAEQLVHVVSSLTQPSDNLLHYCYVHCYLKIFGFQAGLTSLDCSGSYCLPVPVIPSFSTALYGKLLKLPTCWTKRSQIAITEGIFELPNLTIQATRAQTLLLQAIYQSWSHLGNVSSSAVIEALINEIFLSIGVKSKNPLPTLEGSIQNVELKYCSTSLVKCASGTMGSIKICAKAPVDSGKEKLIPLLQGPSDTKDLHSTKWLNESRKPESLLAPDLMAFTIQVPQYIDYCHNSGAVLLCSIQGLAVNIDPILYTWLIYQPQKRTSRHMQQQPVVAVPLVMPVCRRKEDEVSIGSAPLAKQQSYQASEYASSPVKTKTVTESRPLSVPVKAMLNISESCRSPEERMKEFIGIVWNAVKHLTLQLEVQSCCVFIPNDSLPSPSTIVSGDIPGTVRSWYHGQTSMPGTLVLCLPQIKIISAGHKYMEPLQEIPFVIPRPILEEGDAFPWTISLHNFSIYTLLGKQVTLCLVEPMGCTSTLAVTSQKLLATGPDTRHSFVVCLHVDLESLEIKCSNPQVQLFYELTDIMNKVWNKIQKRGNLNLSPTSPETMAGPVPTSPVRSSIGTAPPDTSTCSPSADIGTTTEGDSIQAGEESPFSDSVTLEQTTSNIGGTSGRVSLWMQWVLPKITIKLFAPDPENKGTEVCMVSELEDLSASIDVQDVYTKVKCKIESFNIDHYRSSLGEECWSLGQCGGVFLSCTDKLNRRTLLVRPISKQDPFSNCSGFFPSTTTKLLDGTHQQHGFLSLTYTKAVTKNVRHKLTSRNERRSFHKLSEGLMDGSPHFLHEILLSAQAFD

The target in experiment [2] is T2, GFP-VPS13B-NT (1-1500aa) S560D (human) (UniProt Q7Z7G8).
T2 sequence: T1 sequence with S560D

For experiment [3], the target named is T1, GFP-VPS13B-NT (1-1500aa) (human). The source holds these as a separate data set.
In experiment [4] the target is endogenous VPS13B (human (endogenous in HEK293)) (UniProt Q7Z7G8).

With VAPB (from UniProt O95292 1-243), the binding entry in experiment [1] and in experiment [2] was “binds” each time.

B1: MOSPD3 (protein, UniProt O75425 1-235)
chain: MRRGAPQDQELVGPGPPGRGSRGAPPPLGPVVPVLVFPPDLVFRADQRSGPRQLLTLYNPTGTALRFRVLCTAPAKYTVFDAEGYVKPQSCIDIVIRHVAPIPSHYDVQDRFRIELSEEGAEGRVVGRKDITSILRAPAYPLELQGQPDPAPRPGPPAGTPPPTARHFQEHPRQQLATSSFLLFLLTGIVSVAFLLLPLPDELGSQLPQVLHVSLGQKLVAAYVLGLLTMVFLRT
On to B1, for which, in experiment [3], the binding result is “no binding”.

B2: endogenous Sec23IP (protein, UniProt Q9Y6Y8 1-1000)
chain: MAERKPNGGSGGASTSSSGTNLLFSSSATEFSFNVPFIPVTQASASPASLLLPGEDSTDVGEEDSFLGQTSIHTSAPQTFSYFSQVSSSSDPFGNIGQSPLTTAATSVGQSGFPKPLTALPFTTGSQDVSNAFSPSISKAQPGAPPSSLMGINSYLPSQPSSLPPSYFGNQPQGIPQPGYNPYRHTPGSSRANPYIAPPQLQQCQTPGPPAHPPPSGPPVQMYQMPPGSLPPVPSSVQSPAQQQVPARPGAPSVQVPSPFLLQNQYEPVQPHWFYCKEVEYKQLWMPFSVFDSLNLEEIYNSVQPDPESVVLGTDGGRYDVYLYDRIRKAAYWEEEPAEVRRCTWFYKGDTDSRFIPYTEEFSEKLEAEYKKAVTTNQWHRRLEFPSGETIVMHNPKVIVQFQPSSVPDEWGTTQDGQTRPRVVKRGIDDNLDEIPDGEMPQVDHLVFVVHGIGPVCDLRFRSIIECVDDFRVVSLKLLRTHFKKSLDDGKVSRVEFLPVHWHSSLGGDATGVDRNIKKITLPSIGRFRHFTNETLLDILFYNSPTYCQTIVEKVGMEINHLHALFMSRNPDFKGGVSVAGHSLGSLILFDILSNQKDLNLSKCPGPLAVANGVVKQLHFQEKQMPEEPKLTLDESYDLVVENKEVLTLQETLEALSLSEYFSTFEKEKIDMESLLMCTVDDLKEMGIPLGPRKKIANFVEHKAAKLKKAASEKKAVAATSTKGQEQSAQKTKDMASLPSESNEPKRKLPVGACVSSVCVNYESFEVGAGQVSVAYNSLDFEPEIFFALGSPIAMFLTIRGVDRIDENYSLPTCKGFFNIYHPLDPVAYRLEPMIVPDLDLKAVLIPHHKGRKRLHLELKESLSRMGSDLKQGFISSLKSAWQTLNEFARAHTSSTQLQEELEKVANQIKEEEEKQVVEAEKVVESPDFSKDEDYLGKVGMLNGGRRIDYVLQEKPIESFNEYLFALQSHLCYWESEDTALLLLKEIYRTMNISPEQPQH
For the molecule B2, the binding result in experiment [4] is “binds”.
